Values of other authors as cited in patent publication US20050226814A1, “Diagnostic method and kit for implantation of a sustained release drug-delivery implant with a steroid” (Bausch & Lomb Incorporated, priority 2004, published 2005).
For at least one compound, name, drawing or mass did not settle the structure.

Assays:
[1] = test system: proliferative vitreoretinopathy; settings: injected into the sub-conjuctival area
retinochoroid disorders = settings: injection into the eye of a patient

Row | Structure (SMILES) | effect on proliferative vitreoretinopathy [1] | long-term effect (retinochoroid disorders)
1 | C[C@H]1C[C@H]2[C@@H]3CCC4=CC(=O)C=C[C@]4(C)[C@@]3(F)[C@@H](O)C[C@]2(C)[C@@]1(O)C(=O)CO [betamethasone] | inhibited proliferative vitreoretinopathy | 
2 | CC1(C)O[C@@H]2C[C@H]3[C@@H]4CCC5=CC(=O)C=C[C@]5(C)[C@@]4(F)[C@@H](O)C[C@]3(C)[C@]2(C(=O)CO)O1 [trimacinolone acetonide, triamcinolone acetonide] |  | did not have a significantly long-term effect
